These are yes or no findings as the source states them, for the method shown. Binding seen in cells or lysates may run through a third protein. Some results given as binding are weak or reduced against the parent protein; the word gives no strength. Sequences can lack the tags named with a protein.
T1: NUCLEOPORIN1 (NUP1), BiFC fusion (Arabidopsis) (UniProt Q9CAF4)
T1 sequence: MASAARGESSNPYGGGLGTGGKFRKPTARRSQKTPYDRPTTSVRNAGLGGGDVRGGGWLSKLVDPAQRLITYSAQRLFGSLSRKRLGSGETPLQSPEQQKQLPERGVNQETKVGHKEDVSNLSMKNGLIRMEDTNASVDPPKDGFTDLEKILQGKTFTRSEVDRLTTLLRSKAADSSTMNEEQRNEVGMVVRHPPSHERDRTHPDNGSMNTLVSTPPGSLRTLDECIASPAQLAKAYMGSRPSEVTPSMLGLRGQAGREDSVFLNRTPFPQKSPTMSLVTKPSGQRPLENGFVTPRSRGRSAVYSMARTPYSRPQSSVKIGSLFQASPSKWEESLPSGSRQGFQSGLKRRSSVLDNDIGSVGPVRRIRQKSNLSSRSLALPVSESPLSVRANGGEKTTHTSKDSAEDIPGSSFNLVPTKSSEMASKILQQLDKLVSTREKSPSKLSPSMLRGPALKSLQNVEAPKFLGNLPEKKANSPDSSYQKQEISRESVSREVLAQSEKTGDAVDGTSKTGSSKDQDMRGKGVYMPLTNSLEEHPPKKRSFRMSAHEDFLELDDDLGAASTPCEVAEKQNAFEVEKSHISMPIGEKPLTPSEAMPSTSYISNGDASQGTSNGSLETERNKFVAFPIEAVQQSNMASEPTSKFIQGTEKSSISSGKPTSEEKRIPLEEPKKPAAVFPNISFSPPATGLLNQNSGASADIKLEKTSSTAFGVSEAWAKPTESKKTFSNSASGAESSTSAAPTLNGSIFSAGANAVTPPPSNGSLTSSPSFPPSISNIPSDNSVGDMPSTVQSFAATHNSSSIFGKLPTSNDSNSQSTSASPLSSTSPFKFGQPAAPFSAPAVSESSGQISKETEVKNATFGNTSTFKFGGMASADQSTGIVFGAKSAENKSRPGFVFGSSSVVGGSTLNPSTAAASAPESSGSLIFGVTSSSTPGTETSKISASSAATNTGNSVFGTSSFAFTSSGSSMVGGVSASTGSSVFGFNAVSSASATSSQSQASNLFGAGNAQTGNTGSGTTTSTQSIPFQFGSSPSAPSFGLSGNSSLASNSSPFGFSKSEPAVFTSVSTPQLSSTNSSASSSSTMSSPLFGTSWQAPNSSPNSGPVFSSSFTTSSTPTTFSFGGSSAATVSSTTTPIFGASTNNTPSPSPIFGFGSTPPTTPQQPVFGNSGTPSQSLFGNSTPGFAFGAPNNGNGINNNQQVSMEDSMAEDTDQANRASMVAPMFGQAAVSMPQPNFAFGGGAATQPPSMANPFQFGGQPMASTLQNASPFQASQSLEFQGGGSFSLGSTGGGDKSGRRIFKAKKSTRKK

The chains behind the UniProt entries cited, without tags or fusion partners.
UniProt Q9SL67: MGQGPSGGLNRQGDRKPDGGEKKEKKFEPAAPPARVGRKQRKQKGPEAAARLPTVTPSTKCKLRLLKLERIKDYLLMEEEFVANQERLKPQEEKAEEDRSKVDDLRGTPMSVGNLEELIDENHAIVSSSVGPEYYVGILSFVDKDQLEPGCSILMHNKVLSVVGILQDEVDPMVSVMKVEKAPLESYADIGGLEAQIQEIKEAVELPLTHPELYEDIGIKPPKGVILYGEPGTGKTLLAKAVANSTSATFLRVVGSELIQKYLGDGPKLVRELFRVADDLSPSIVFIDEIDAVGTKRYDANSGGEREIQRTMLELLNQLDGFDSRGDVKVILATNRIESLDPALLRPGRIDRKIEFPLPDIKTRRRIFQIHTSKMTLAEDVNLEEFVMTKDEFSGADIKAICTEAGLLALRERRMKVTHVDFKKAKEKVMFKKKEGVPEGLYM
UniProt Q9FHY0: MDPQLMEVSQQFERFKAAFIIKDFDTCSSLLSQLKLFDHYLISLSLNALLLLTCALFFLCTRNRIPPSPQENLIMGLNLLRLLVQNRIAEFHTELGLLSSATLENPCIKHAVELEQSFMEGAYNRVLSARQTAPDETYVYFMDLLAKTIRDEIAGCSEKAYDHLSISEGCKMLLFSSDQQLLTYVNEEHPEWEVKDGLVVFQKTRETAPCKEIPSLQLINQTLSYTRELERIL


What follows are molecules tested against T1, NUCLEOPORIN1 (NUP1), BiFC fusion (Arabidopsis) (assay: split reporter).

Molecule	binding
RPT2B, BiFC fusion (from UniProt Q9SL67 1-443)	binds
RPN12b, BiFC fusion (from UniProt Q9FHY0 1-233)	binds
RPN12a, BiFC fusion (protein, UniProt Q9SGW3 1-267) MDPQLTEVSQQFERFKAAFARKDYNTCSDLLSQLKVLLTKFTSLPPLFENSPNAAKELTIARDIYEHAVVLSVKTEDQDAFERDFFQLKPYYVDARNRIPQSPQENLILGLNLLRLLVQNRIAEFHTELELLSSATLEDPCIKHAVELEQSFMEGAYNRVLSARQTAPDATYVYFMDLLAKTIRDEIAGCSEKAYDYVSISDARQMLLFSSDQELLTYVTDEHPEWEVKEGFVVFQKAKETAPCKEIPSLQLINQTLSYARELERIV	binds
RPN3a, BiFC fusion (protein, UniProt Q9LNU4 1-488) MTQDVEMKDNNTPSQSIISSSTSTMQNLKEIAALIDTGSYTKEVRRIARAVRLTIGLRQKLTGSVLSSFLDFALVPGSEAHSRLSSFVPKGDEHDMEVDTASSATQAAPSKHLPAELEIYCYFIVLLFLIDQKKYNEAKACSSASIARLKNVNRRTIDVIASRLYFYYSLSYEQTGDLAEIRGTLLALHHSATLRHDELGQETLLNLLLRNYLHYNLYDQAEKLRSKAPRFEAHSNQQFCRYLFYLGKIRTIQLEYTDAKESLLQAARKAPIAALGFRIQCNKWAILVRLLLGEIPERSIFTQKGMEKALRPYFELTNAVRIGDLELFRTVQEKFLDTFAQDRTHNLIVRLRHNVIRTGLRNISISYSRISLPDVAKKLRLNSENPVADAESIVAKAIRDGAIDATIDHKNGCMVSKETGDIYSTNEPQTAFNSRIAFCLNMHNEAVRALRFPPNTHKEKESDEKRRERKQQEEELAKHMAEEDDDDF	binds
RPN10, BiFC fusion (protein, UniProt P55034 1-386) MVLEATMICIDNSEWMRNGDYSPSRLQAQTEAVNLLCGAKTQSNPENTVGILTMAGKGVRVLTTPTSDLGKILACMHGLDVGGEINLTAAIQIAQLALKHRQNKNQRQRIIVFAGSPIKYEKKALEIVGKRLKKNSVSLDIVNFGEDDDEEKPQKLEALLTAVNNNDGSHIVHVPSGANALSDVLLSTPVFTGDEGASGYVSAAAAAAAAGGDFDFGVDPNIDPELALALRVSMEEERARQEAAAKKAADEAGQKDKDGDTASASQETVARTTDKNAEPMDEDSALLDQAIAMSVGDVNMSEAADEDQDLALALQMSMSGEESSEATGAGNNLLGNQAFISSVLSSLPGVDPNDPAVKELLASLPDESKRTEEEESSSKKGEDEKK	binds
